# Reference: publication PMC4987143
# These are yes or no findings as the source states them, for the method shown. In cells and extracts the contact can be indirect. Some entries that bind do so weakly or less than the wild type.
# T1: PTRF (polymerase I transcription and release factor) (mouse (endogenous in adipocytes)) (UniProt O54724)
# T1 sequence: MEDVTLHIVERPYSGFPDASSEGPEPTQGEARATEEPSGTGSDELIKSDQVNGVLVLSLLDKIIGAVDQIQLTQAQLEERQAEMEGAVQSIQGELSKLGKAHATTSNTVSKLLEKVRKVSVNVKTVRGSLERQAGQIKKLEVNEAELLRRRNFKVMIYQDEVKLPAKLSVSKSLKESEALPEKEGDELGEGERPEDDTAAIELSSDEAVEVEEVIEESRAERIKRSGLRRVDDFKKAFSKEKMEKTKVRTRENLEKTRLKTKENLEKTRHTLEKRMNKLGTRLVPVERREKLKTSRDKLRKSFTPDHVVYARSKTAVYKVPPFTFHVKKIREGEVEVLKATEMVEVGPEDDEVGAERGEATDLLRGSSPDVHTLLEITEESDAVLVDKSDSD
# B1: TTF1 (polymerase I transcription termination factor 1) (protein, UniProt Q62187 1-859)
# chain: MKGGTSKFKTHTETLYKKKKWSSVSEKRPQKCPSQCLESKQPQVSVLGKRRRASQTPAQETLESEWPQKAKRKKRRREPQTPAQETLESEWPQKAKKKKRRGEPQTPTQESLESEQPPVSLLGKRRRESQTPAQENSESEQPRKAKRRRKKRKGSQQPTSSLLKTPETFLKAKKTTSAHKKKKNSVLEVDMETGIILVDKENMENLLETSRKDVDIVYVDMSKGQRSAKVRETGELPAAKPQEHGCRELLGDVRSRKKQKHLQKVAPWDVVQGSQPESISLPPSEPLSSEDLEGKSTEAAVFCKKKSKKNVFRSQELEPIPDSLDDSETISERLDSTHHGGAVGAGEECESTKESHSIKKKSKKKKHKSVALATSSDSASVTDSKAKNALVDSSEGSGAVREEDVDHRPAEAEAQACSTEKHREAMQRLEPTHEEESNSESASNSAARHISEDRRESDDSDVDLGSAVRQLREFIPDIQERAATTIRRMYRDDLGRFKEFKAQGVAIRFGKFSAKENKQIEKNVQDFLSLTGIESADKLLYTDRYPEEKTLITNLKRKHAFRLHIGKGIARPWKLVYYRAKKIFDVNNYKGRYNEEDTKKLKAYHSLHGNDWKKIGAMVARSSLSVALKFSQIGGTRNQGAWSKAETQRLIKAVEDVILKKMSPQELRELDSKLQEDPEGRLSIVREKLYKGISWVEVEARVETRNWMQCKSKWTEILTKRMTHGGFVYRGVNALQAKITLIERLYELNVNDANEIDWEDLASAIGDVPPPFVQAKFYKLKAACVPFWQKKTFPEIIDYLYKNSLPLLKEKLDKKMKKKDGQIQTPAAPKQDFLFKDIFHCDDDSDEGSPEEPSASDVQ
# B2: SDPR (Serum deprivation response protein, Cavin-2) (protein, UniProt Q63918 1-418)
# chain: MGEDAAQAEKFQHPNTDMLQEKPSSPSPMPSSTPSPSLNLGSTEEAIRDNSQVNAVTVHTLLDKLVNMLDAVRENQHNMEQRQINLEGSVKGIQNDLTKLSKYQASTSNTVSKLLEKSRKVSAHTRAVRERLERQCVQVKRLENNHAQLLRRNHFKVLIFQEESEIPASVFVKEPVPSAAEGKEELADENKSLEETLHNVDLSSDDELPRDEEALEDSAEEKMEESRAEKIKRSSLKKVDSLKKAFSRQNIEKKMNKLGTKIVSVERREKIKKSLTPNHQKASSGKSSPFKVSPLSFGRKKVREGESSVENETKLEDQMQEDREEGSFTEGLSEASLPSGLMEGSAEDAEKSARRGNNSAVGSNADLTIEEDEEEEPVALQQAQQVRYESGYMLNSEEMEEPSEKQVQPAVLHVDQTA
# What was measured:
# [1] = target: T1, PTRF (polymerase I transcription and release factor) (mouse (endogenous in adipocytes)); experiment: co-IP; immunoprecipitation with PTRF antibody from sonicated nuclear fraction lysate (1% Triton X-100) of basal and insulin-stimulated adipocytes; blots for TTF1 and PTRF; PTRF null (KO) adipocytes as negative control
# [2] = target: T1, PTRF (polymerase I transcription and release factor) (mouse (endogenous in adipocytes)); experiment: co-IP; immunoprecipitation with PTRF antibody from whole cell lysates (1% Triton X-100) of isolated mouse primary adipocytes stimulated by insulin for 0-60 min; SDS-PAGE and blots
Binder,binding [1],binding [2]
B1,binds,
B2,,binds
